The supplement of paper PMC4604168 (melanoma cell lines)
Some of the results follow. Single values are uncertain, as repeats are few or missing.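 Cells were imaged in 1,536-well plates, and nuclei stained with an antibody against cleaved PARP were counted against all DNA-stained nuclei to give the apoptosis fraction. Screening doses were chosen to leave most cells alive, and resting and induced cleaved-PARP levels differ strongly between cell lines.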

system: WM3526; test: cleaved PARP positive nuclei fraction relative to DMSO control; melanoma cells; higher = more apoptosis; conditions: library dose: low library concentration; 72 h

| SMILES | cleaved PARP positive nuclei fraction |
| --- | --- |
| O=C(/C=C/c1cccnc1)NCCCCC1CCN(C(=O)c2ccccc2)CC1 + CC(=O)c1c(C)c2cnc(Nc3ccc(N4CCNCC4)cn3)nc2n(C2CCCC2)c1=O [palbociclib] (first compound 0.01 µM, partner dose 0.04 µM) | 52.9% |
| CCCCCCCCCCCCCCCCCCOP(=O)([O-])OC1CC[N+](C)(C)CC1 [Perifosine] + CCCCCCCCc1ccc(CCC(N)(CO)CO)cc1 [fingolimod] (first compound 0.4 µM, partner dose 2 µM) | 45.7% |
| CC[C@]1(O)C[C@H]2CN(CCc3c([nH]c4ccccc34)[C@@](C(=O)OC)(c3cc4c(cc3OC)N(C=O)[C@H]3[C@@](O)(C(=O)OC)[C@H](OC(C)=O)[C@]5(CC)C=CCN6CC[C@]43[C@@H]65)C2)C1 [vincristine] + Nc1ncn([C@H]2C[C@H](O)[C@@H](CO)O2)c(=O)n1 [decitabine] (first compound 0.0001 µM, partner dose 0.1 µM) | 32.3% |
| O=c1[nH]nc(Sc2ncc([N+](=O)[O-])s2)n1-c1ccc2c(c1)OCCO2 + CC1(C)CCC(c2ccc(Cl)cc2)=C(CN2CCN(c3ccc(C(=O)NS(=O)(=O)c4ccc(N[C@H](CCN5CCOCC5)CSc5ccccc5)c(S(=O)(=O)C(F)(F)F)c4)cc3)CC2)C1 [ABT263] (first compound 0.2 µM, partner dose 0.4 µM) | 46.8% |
| O=c1[nH]nc(Sc2ncc([N+](=O)[O-])s2)n1-c1ccc2c(c1)OCCO2 + C=C(c1ccc(C(=O)O)cc1)c1cc2c(cc1C)C(C)(C)CCC2(C)C [Bexarotene] (first compound 0.2 µM, partner dose 2 µM) | 211% |
| CC[C@]1(O)C[C@H]2CN(CCc3c([nH]c4ccccc34)[C@@](C(=O)OC)(c3cc4c(cc3OC)N(C=O)[C@H]3[C@@](O)(C(=O)OC)[C@H](OC(C)=O)[C@]5(CC)C=CCN6CC[C@]43[C@@H]65)C2)C1 [vincristine] + COc1ccc(C2=N[C@@H](c3ccc(Cl)cc3)[C@@H](c3ccc(Cl)cc3)N2C(=O)N2CCNC(=O)C2)c(OC(C)C)c1 [Nutlin-3] (first compound 0.0001 µM, partner dose 0.1 µM) | 69.5% |
| COc1cc([C@@H]2c3cc4c(cc3[C@@H](O[C@@H]3O[C@@H]5CO[C@@H](C)O[C@H]5[C@H](O)[C@H]3O)[C@H]3COC(=O)[C@H]23)OCO4)cc(OC)c1O [etoposide] + C[C@@H](Oc1cc(-c2cnn(C3CCNCC3)c2)cnc1N)c1c(Cl)ccc(F)c1Cl [Crizotinib] (first compound 0.02 µM, partner dose 0.2 µM) | 68.1% |
| CC[C@]1(O)C[C@H]2CN(CCc3c([nH]c4ccccc34)[C@@](C(=O)OC)(c3cc4c(cc3OC)N(C=O)[C@H]3[C@@](O)(C(=O)OC)[C@H](OC(C)=O)[C@]5(CC)C=CCN6CC[C@]43[C@@H]65)C2)C1 [vincristine] + OCc1c[nH]c2ccccc12 [Indole-3-carbinol] (first compound 0.0001 µM, partner dose 0.8 µM) | 109% |
| O=c1[nH]nc(Sc2ncc([N+](=O)[O-])s2)n1-c1ccc2c(c1)OCCO2 + Cn1cnc2c(F)c(Nc3ccc(Br)cc3Cl)c(C(=O)NOCCO)cc21 [selumetinib] (first compound 0.2 µM, partner dose 0.015 µM) | 96.8% |
| CC[C@]1(O)C[C@H]2CN(CCc3c([nH]c4ccccc34)[C@@](C(=O)OC)(c3cc4c(cc3OC)N(C=O)[C@H]3[C@@](O)(C(=O)OC)[C@H](OC(C)=O)[C@]5(CC)C=CCN6CC[C@]43[C@@H]65)C2)C1 [vincristine] + CS(=O)(=O)c1ccc(C(=O)Nc2ccc(Cl)c(-c3ccccn3)c2)c(Cl)c1 [vismodegib] (first compound 0.0001 µM, partner dose 1 µM) | 23.6% |
| O=c1[nH]nc(Sc2ncc([N+](=O)[O-])s2)n1-c1ccc2c(c1)OCCO2 + Nc1ccn([C@@H]2O[C@H](CO)[C@@H](O)C2(F)F)c(=O)n1 [gemcitabine] (first compound 0.2 µM, partner dose 0.0004 µM) | 263% |
| CCCCCCCCCCCCCCCCCCOP(=O)([O-])OC1CC[N+](C)(C)CC1 [Perifosine] + Cc1cc(Nc2cc(N3CCN(C)CC3)nc(/C=C/c3ccccc3)n2)n[nH]1 [ENMD2076] (first compound 0.4 µM, partner dose 0.04 µM) | 44.2% |
| O=C(Nc1cc(C(F)(F)F)cc(C(F)(F)F)c1)c1cc(Cl)ccc1O + Cn1cnc2c(F)c(Nc3ccc(Br)cc3Cl)c(C(=O)NOCCO)cc21 [selumetinib] (first compound 0.016 µM, partner dose 0.015 µM) | 67.9% |
| Cc1ccc(Nc2nccc(N(C)c3ccc4c(C)n(C)nc4c3)n2)cc1S(N)(=O)=O [Pazopanib] + CC(=O)c1c(C)c2cnc(Nc3ccc(N4CCNCC4)cn3)nc2n(C2CCCC2)c1=O [palbociclib] (first compound 0.4 µM, partner dose 0.04 µM) | 69.9% |
| CC[C@]1(O)C[C@H]2CN(CCc3c([nH]c4ccccc34)[C@@](C(=O)OC)(c3cc4c(cc3OC)N(C=O)[C@H]3[C@@](O)(C(=O)OC)[C@H](OC(C)=O)[C@]5(CC)C=CCN6CC[C@]43[C@@H]65)C2)C1 [vincristine] + C#Cc1cccc(Nc2ncnc3cc(OCCOC)c(OCCOC)cc23)c1 [erlotinib] (first compound 0.0001 µM, partner dose 0.8 µM) | 264% |
| N#CC[C@H](C1CCCC1)n1cc(-c2ncnc3[nH]ccc23)cn1 [ruxolitinib] + O=C(O)[C@@H]1[O][Sb](=[O])([O][Sb]2(=[O])[O][C@H]([C@H](O)CO)[C@H](O)[C@H](C(=O)O)[O]2)[O][C@H]([C@H](O)CO)[C@@H]1O [stibogluconate] (first compound 1 µM, partner dose 2 µM) | 37.8% |
| Cc1cn(-c2cc(NC(=O)c3ccc(C)c(Nc4nccc(-c5cccnc5)n4)c3)cc(C(F)(F)F)c2)cn1 [nilotinib] + CC(=O)O[C@@]12CO[C@@H]1C[C@H](O)[C@@]1(C)C(=O)[C@H](O)C3=C(C)[C@@H](OC(=O)[C@H](O)[C@@H](NC(=O)OC(C)(C)C)c4ccccc4)C[C@@](O)([C@@H](OC(=O)c4ccccc4)[C@H]21)C3(C)C [Docetaxel] (first compound 0.2 µM, partner dose 0.0001 µM) | 228% |
| COc1cc([C@@H]2c3cc4c(cc3[C@@H](O[C@@H]3O[C@@H]5CO[C@@H](C)O[C@H]5[C@H](O)[C@H]3O)[C@H]3COC(=O)[C@H]23)OCO4)cc(OC)c1O [etoposide] + Cc1nc(Nc2ncc(C(=O)Nc3c(C)cccc3Cl)s2)cc(N2CCN(CCO)CC2)n1 [dasatanib] (first compound 0.02 µM, partner dose 0.004 µM) | 115% |
| CC[C@]1(O)C[C@H]2CN(CCc3c([nH]c4ccccc34)[C@@](C(=O)OC)(c3cc4c(cc3OC)N(C=O)[C@H]3[C@@](O)(C(=O)OC)[C@H](OC(C)=O)[C@]5(CC)C=CCN6CC[C@]43[C@@H]65)C2)C1 [vincristine] + Cc1ccc(Nc2nccc(N(C)c3ccc4c(C)n(C)nc4c3)n2)cc1S(N)(=O)=O [Pazopanib] (first compound 0.0001 µM, partner dose 0.4 µM) | 131% |
| O=C(/C=C/c1cccnc1)NCCCCC1CCN(C(=O)c2ccccc2)CC1 + Cn1c(=O)n(-c2ccc(C(C)(C)C#N)cc2)c2c3cc(-c4cnc5ccccc5c4)ccc3ncc21 [NVP-BEZ235] (first compound 0.01 µM, partner dose 0.004 µM) | 36.8% |
| O=C(/C=C/c1cccnc1)NCCCCC1CCN(C(=O)c2ccccc2)CC1 + Cc1cn(-c2cc(NC(=O)c3ccc(C)c(Nc4nccc(-c5cccnc5)n4)c3)cc(C(F)(F)F)c2)cn1 [nilotinib] (first compound 0.01 µM, partner dose 0.2 µM) | 123% |
| O=C(/C=C/c1cccnc1)NCCCCC1CCN(C(=O)c2ccccc2)CC1 + COCC[n+]1c2c(n(Cc3cnccn3)c1C)C(=O)c1ccccc1C2=O [YM155] (first compound 0.01 µM, partner dose 0.0004 µM) | 43.3% |
| COc1cc([C@@H]2c3cc4c(cc3[C@@H](O[C@@H]3O[C@@H]5CO[C@@H](C)O[C@H]5[C@H](O)[C@H]3O)[C@H]3COC(=O)[C@H]23)OCO4)cc(OC)c1O [etoposide] + O=c1[nH]nc(Sc2ncc([N+](=O)[O-])s2)n1-c1ccc2c(c1)OCCO2 [BI78D3] (first compound 0.02 µM, partner dose 0.2 µM) | 89.7% |
| Cc1cc(Nc2cc(N3CCN(C)CC3)nc(Sc3ccc(NC(=O)C4CC4)cc3)n2)n[nH]1 [Tozasertib] + C[C@@H](Oc1cc(-c2cnn(C3CCNCC3)c2)cnc1N)c1c(Cl)ccc(F)c1Cl [Crizotinib] (first compound 0.006 µM, partner dose 0.2 µM) | 61.1% |
| O=C(Nc1cc(C(F)(F)F)cc(C(F)(F)F)c1)c1cc(Cl)ccc1O + COCC[n+]1c2c(n(Cc3cnccn3)c1C)C(=O)c1ccccc1C2=O [YM155] (first compound 0.016 µM, partner dose 0.0004 µM) | 40.1% |
| O=c1[nH]nc(Sc2ncc([N+](=O)[O-])s2)n1-c1ccc2c(c1)OCCO2 + CCCCCCCCc1ccc(CCC(N)(CO)CO)cc1 [fingolimod] (first compound 0.2 µM, partner dose 2 µM) | 108% |

2 entries drawn at random from those above:

| SMILES | cleaved PARP positive nuclei fraction |
| --- | --- |
| O=C(/C=C/c1cccnc1)NCCCCC1CCN(C(=O)c2ccccc2)CC1 + CC(=O)c1c(C)c2cnc(Nc3ccc(N4CCNCC4)cn3)nc2n(C2CCCC2)c1=O [palbociclib] (first compound 0.01 µM, partner dose 0.04 µM) | 52.9% |
| COc1cc([C@@H]2c3cc4c(cc3[C@@H](O[C@@H]3O[C@@H]5CO[C@@H](C)O[C@H]5[C@H](O)[C@H]3O)[C@H]3COC(=O)[C@H]23)OCO4)cc(OC)c1O [etoposide] + Cc1nc(Nc2ncc(C(=O)Nc3c(C)cccc3Cl)s2)cc(N2CCN(CCO)CC2)n1 [dasatanib] (first compound 0.02 µM, partner dose 0.004 µM) | 115% |
